Source: article PMC10667345
Results are given in words; binding and its absence hold for the method and conditions named. Binding seen in cells or lysates may run through a third protein. Some results given as binding are weak or reduced against the parent protein; the word gives no strength. Tags and fused reporters may be left off the sequences shown.

By UniProt entry, the sequences of proteins in these tests, tags left out.
UniProt P37238: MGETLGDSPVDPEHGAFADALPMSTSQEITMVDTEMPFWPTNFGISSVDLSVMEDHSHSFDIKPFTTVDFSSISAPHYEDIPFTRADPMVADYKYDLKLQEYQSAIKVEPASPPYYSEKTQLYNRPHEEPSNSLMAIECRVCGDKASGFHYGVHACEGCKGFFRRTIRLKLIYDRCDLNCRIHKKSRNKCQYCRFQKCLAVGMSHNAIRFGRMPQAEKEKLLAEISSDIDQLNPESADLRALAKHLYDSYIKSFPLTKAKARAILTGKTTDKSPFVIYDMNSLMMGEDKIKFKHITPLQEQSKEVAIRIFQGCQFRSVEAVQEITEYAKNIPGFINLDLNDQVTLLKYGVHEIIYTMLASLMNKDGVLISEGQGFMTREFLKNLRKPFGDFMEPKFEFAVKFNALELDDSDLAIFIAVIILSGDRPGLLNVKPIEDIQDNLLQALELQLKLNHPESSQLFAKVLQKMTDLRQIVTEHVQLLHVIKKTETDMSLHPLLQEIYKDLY

T1: Twist1 coupled with Flag-Tag (Twist1-OE lentivirus) (UniProt P26687)
T1 sequence: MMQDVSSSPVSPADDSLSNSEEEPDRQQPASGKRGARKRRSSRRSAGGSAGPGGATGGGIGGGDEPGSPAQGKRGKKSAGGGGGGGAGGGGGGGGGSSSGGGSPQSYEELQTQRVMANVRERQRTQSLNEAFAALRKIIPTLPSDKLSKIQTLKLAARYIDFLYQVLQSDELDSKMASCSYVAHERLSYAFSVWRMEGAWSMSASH

T2: RXRα-ECFP (UniProt P28700)
T2 sequence: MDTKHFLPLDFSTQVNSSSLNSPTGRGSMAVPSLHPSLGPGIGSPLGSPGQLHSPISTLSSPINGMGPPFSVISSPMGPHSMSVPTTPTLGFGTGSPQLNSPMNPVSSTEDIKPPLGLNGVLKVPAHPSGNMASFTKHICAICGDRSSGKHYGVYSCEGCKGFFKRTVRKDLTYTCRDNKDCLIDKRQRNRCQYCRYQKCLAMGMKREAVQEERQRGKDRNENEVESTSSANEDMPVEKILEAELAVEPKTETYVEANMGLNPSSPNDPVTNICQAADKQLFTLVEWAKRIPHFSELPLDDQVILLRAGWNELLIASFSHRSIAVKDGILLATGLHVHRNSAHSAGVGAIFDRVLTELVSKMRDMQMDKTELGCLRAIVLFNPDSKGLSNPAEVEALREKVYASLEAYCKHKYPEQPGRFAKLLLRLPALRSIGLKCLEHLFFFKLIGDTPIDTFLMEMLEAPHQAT

B1: Twist1 coupled with Flag-Tag (Twist1-OE lentivirus) (protein, UniProt P26687 1-206)
chain: T1 sequence
B2: RXRα-ECFP (protein, UniProt P28700 1-467)
chain: T2 sequence

Key:
Assay in all cases: co-IP; lysates (NP-40 lysis buffer) of transfected Twist1-OE 3T3-L1 and control cells; anti-GFP mAb agarose or anti-Flag-Tag mAb agarose, 4 °C overnight; blots with anti-GFP and anti-Twist1 antibodies
[1] = biological target: T1, Twist1 coupled with Flag-Tag (Twist1-OE lentivirus)
PPARγ-EYFP = PPARγ-EYFP (UniProt P37238)
RXRα-ECFP = biological target: T2, RXRα-ECFP

Molecule	binding [1]	binding (PPARγ-EYFP)	binding (RXRα-ECFP)
PPARγ-EYFP (from UniProt P37238 1-505)	binds		
B1		binds	binds
B2	binds		
